These results are taken from PMC3763546, “Structural insight into negative DNA supercoiling by DNA gyrase, a bacterial type 2A DNA topoisomerase” (Nucleic Acids Research, 2013).

These are yes or no findings as the source states them, for the method shown. Some results given as binding are weak or reduced against the parent protein; the word gives no strength. For some assays here: Tags and fused reporters may be left off the sequences shown.

Test [1] has as its target Thermus thermophilus DNA gyrase subunit B (GyrB), as it stands in GyrBA-fus (Thermus thermophilus) (UniProt Q5SHZ4). Nature of the test: cryo-EM structure; DNA-bound complex: GyrBA-fus with 155 bp DNA, ciprofloxacin and ADPNP; single-particle reconstruction, no symmetry applied, 23 A (FSC 0.5); crystal structures of homologous domains fitted; both purified.
Test [2] concerns the target T1, Thermus thermophilus DNA gyrase subunit A (GyrA), as it stands in GyrBA-fus (Thermus thermophilus) (UniProt Q5SIL4).
T1 sequence: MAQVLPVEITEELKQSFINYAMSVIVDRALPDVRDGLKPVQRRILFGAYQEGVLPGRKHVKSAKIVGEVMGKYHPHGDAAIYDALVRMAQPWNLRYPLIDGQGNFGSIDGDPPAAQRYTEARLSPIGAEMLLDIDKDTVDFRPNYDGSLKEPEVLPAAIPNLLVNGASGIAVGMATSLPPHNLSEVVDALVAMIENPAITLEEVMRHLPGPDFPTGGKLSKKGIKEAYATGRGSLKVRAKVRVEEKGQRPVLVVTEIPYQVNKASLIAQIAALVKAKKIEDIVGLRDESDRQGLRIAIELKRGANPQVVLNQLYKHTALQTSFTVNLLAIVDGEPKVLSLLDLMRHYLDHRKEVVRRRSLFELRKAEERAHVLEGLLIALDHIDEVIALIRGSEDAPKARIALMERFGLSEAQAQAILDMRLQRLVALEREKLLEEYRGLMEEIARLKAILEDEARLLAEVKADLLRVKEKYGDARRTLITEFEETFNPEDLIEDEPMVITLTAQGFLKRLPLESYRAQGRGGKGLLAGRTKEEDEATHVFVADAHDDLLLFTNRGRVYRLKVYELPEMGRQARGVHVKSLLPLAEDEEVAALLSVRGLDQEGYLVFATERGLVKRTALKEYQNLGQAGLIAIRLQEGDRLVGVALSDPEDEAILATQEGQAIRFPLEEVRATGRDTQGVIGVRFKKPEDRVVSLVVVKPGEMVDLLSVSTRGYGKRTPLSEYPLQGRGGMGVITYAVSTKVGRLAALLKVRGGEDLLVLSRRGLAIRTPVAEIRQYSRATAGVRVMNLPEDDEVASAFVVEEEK
Nature of the test: cryo-EM structure; holoenzyme: GyrBA-fus with ADPNP, cross-linked with glutaraldehyde; single-particle reconstruction, 2-fold symmetry applied in the last refinement step, 16.9 A (FSC 0.5); crystal structures of homologous domains fitted; both purified.

Turning to “Thermus thermophilus DNA gyrase subunit B (GyrB), as it stands in GyrBA-fus (from UniProt Q5SHZ4 1-634) (enzyme)”, the binding entry in test [1] and in test [2] was “binds” throughout.
